# Columns and labels:
# MCF7 cells = assay: Cell growth inhibition (AlamarBlue), MCF7; type: cell-based; details: Homo sapiens; MCF7, 72 hours, DOX equivalent concentration
# Description: (§1) MCF7 cells were maintained in EMEM growth media with 10% fetal bovine serum and 0.01 mg/mL recombinant human insulin. Growth inhibition experiments were performed in the above media with the addition of penicillin at 100 units/mL and streptomycin at 0.1 mg/mL. PC3 cells were maintained in RPMI 1640 with 10% fetal bovine serum with penicillin and streptomycin at the above concentrations for growth inhibition experiments. Cells were grown in 75 cm^2 flasks at 37° C. with 5% CO2. They were routinely passed once achieving 85% confluence by rinsing 3 times with 5 mL Dulbecco's PBS and detached using 2 mL of trypsin/EDTA solution. Cells were resuspended in fresh growth medium and seeded at either 1×10^5 cells (PC3) or 1×10^6 cells (MCF7). […]
# (§2) Cell growth was determined by AlamarBlue assay following incubation. […] Initial fluorescence at 530/590 nm (F0) was measured using a Perkin Elmer Victor3 1420 bench top plate reader. The percent growth value was obtained by dividing the fluorescence for the drug wells by the fluorescence for the control wells after subtracting the fluorescence from the 24 hr control plate from both. […]
# (§3) The % growth vs. Log [DOX] equivalent concentration (μM) data was fit to a four parameter logistic curve reporting a minimum, maximum, Hillslope, and IC50. Standard error of the IC50 values were determined from the program output. […]
# PC3 cells = assay: Cell growth inhibition (AlamarBlue), PC3; type: cell-based; details: Homo sapiens, PC-3; PC3, 72 hours, DOX equivalent concentration
# Description: as §1, §2, §3
smiles,measurement,setting,value
"COc1cccc2c1C(=O)c1c(O)c3c(c(O)c1C2=O)C[C@@](O)(C(=O)CO)C[C@@H]3O[C@H]1C[C@H](N)[C@H](O)[C@H](C)O1 [DOX, (7S,9S)-7-[(2R,4S,5S,6S)-4-amino-5-hydroxy-6-methyloxan-2-yl]oxy-6,9,11-trihydroxy-9-(2-hydroxyacetyl)-4-methoxy-8,10-dihydro-7H-tetracene-5,12-dione]",IC50,MCF7 cells,0.336 ± 0.251 µM
same,IC50,PC3 cells,0.09 ± 0.038 µM

# Reference: US10265413B2, “High molecular weight biodegradable gelatin-doxorubicin conjugate” (priority 2014, dated 2019)
